The source of these data is article PMC5919733.

By UniProt entry, the sequences of proteins in these tests, tags left out.
UniProt Q02248: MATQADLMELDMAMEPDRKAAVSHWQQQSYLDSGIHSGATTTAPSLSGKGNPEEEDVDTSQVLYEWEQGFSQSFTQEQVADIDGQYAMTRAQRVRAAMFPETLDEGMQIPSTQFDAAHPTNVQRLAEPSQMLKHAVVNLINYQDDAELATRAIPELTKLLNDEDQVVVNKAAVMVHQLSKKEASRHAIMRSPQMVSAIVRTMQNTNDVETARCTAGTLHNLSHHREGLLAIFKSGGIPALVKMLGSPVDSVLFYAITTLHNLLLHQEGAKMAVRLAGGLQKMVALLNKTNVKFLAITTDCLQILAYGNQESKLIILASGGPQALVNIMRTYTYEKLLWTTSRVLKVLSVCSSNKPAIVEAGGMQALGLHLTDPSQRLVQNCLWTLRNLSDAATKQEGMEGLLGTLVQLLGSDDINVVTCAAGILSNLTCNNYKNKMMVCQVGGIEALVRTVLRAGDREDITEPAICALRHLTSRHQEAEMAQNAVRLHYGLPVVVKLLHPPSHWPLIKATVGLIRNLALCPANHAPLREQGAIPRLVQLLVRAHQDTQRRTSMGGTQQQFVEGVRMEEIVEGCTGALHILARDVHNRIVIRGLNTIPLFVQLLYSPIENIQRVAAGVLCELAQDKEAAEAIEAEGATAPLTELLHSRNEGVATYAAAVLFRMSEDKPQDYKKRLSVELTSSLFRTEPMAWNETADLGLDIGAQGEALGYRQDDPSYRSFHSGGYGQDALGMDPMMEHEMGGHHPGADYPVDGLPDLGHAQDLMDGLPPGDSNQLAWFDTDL
UniProt Q61188: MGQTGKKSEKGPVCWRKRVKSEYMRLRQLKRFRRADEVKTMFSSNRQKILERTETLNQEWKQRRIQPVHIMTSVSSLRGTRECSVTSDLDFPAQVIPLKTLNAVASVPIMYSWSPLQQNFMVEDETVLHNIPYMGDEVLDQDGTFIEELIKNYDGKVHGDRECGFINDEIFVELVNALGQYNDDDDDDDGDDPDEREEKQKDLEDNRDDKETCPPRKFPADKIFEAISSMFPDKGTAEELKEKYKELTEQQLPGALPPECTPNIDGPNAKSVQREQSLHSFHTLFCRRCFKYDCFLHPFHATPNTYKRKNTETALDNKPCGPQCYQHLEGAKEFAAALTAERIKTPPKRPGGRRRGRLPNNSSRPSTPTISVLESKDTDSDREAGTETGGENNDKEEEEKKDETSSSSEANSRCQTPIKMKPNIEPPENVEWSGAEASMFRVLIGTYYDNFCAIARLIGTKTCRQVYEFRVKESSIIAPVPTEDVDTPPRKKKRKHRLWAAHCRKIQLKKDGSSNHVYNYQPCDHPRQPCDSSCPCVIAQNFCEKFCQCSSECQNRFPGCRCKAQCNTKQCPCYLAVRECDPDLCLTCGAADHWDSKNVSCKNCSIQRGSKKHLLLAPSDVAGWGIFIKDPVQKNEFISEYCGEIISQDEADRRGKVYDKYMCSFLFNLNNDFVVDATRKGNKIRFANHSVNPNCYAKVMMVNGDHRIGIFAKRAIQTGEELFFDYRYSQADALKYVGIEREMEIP
UniProt Q80U70: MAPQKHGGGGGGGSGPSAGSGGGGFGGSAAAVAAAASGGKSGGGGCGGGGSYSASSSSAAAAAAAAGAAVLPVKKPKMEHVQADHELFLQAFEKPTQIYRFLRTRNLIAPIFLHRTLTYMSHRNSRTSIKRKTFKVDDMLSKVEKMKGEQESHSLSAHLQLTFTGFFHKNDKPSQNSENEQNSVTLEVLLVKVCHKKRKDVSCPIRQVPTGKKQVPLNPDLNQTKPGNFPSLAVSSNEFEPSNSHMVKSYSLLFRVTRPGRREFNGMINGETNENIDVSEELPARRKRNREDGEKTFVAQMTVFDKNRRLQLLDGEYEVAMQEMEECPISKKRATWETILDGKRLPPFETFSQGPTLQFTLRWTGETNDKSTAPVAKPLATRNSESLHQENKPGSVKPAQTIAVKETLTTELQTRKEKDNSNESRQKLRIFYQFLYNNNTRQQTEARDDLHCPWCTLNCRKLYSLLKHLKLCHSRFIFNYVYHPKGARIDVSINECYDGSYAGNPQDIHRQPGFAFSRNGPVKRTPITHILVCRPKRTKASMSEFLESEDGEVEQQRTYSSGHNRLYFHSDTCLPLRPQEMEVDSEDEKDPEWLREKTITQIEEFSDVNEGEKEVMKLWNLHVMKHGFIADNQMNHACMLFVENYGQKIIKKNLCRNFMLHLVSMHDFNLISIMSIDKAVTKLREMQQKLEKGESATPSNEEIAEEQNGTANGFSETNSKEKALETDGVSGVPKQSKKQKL

Assay [1] has as its target β-catenin (mouse (endogenous in E13.5 cranial mesenchyme)) (UniProt Q02248). Put plainly: co-IP; endogenous proteins in lysate of PDGFRα-enriched E13.5 mouse cranial mesenchyme (50 mM Tris pH 7.5, 250 mM NaCl, 2 mM EGTA, 1% Triton X-100); antibody to nonphospho-β-catenin or EZH2 overnight at 4°, Protein G Dynabeads, washes with 300 mM NaCl, 0.2% NP40; Western blot; IgG as negative control. For orientation: A western blot detects proteins with antibodies after separation by electrophoresis.

In assay [2] the target is Enhancer of Zeste homolog 2 (EZH2) (mouse (endogenous in E13.5 cranial mesenchyme)) (UniProt Q61188). The assay is described as above.

These are yes or no findings as the source states them, for the method shown. Binding seen in cells or lysates may run through a third protein. Some results given as binding are weak or reduced against the parent protein; the word gives no strength.

Turning to “Enhancer of Zeste homolog 2 (EZH2) (from UniProt Q61188 1-746)”, the binding entry in assay [1] is recorded as “binds”.
Same read-out and setting: the entry for SUZ12 (from UniProt Q80U70 1-741) is “binds”.
For β-catenin (from UniProt Q02248 1-781), the binding result in assay [2] is “binds”.
